The values that follow come from PubChem BioAssay AID2685 (National Center for Advancing Translational Sciences (NCATS), 2010).

Each structure is given as a SMILES string. The list shows a part of the results. The main result of the screen is listed elsewhere. These columns were measured beside it and carry no call. The list favours compounds with an active or inconclusive main result. Potencies come from curve fits of mixed quality, noted in brackets.

The assay is described as follows: qHTS Assay for Lipid Storage Modulators in Drosophila S3 Cells.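 On cell number change: cells counted by Cell Tracker Red CMTPX staining in the red channel.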 As to conditions: BODIPY lipid droplet fluorescence, 18-24 h; for cell number change: measured here: cell count max response, cells fed with added oleic acid. In short, it runs like this:
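Drosophila S3 cells loaded with oleic acid (400 uM, as added) and compounds at several concentrations; lipid droplets imaged by 488-nm laser-scanning cytometry, 500–530 nm intensity and object ratio to cell channel. Percent activity normalized to 20 uM Triacsin C.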
For orientation: In qHTS, concentration-response curves come from the screen itself.

[1] abbreviates: measured here: lipid fluorescence (Fed channel) AC50, cells fed with added oleic acid.
Where [2] appears, read: measured here: cell number channel AC50, cells fed with added oleic acid.

As a reminder, the AC50 is the midpoint of the concentration-response curve, whichever way the signal moves. High values mean weaker potency, low ones greater potency. Take `CCOC(=O)Cc1nnc(NC(=O)CSc2nncn2C)s1`: the cell number change is -24.3%. Besides, the AC50 under setting [1] was 23.1 µM [falling, single point].
`O=C(C1CCN(Cc2ccc(Cl)cc2)CC1)N1CCN(C(c2ccccc2)c2ccccc2)CC1`: the cell number change is -47.7%. Besides, the AC50 under setting [2] was 32.6 µM [falling, single point]. For the same molecule, the AC50 under setting [1] is 29.1 µM [falling, single point].
Consider `CCOC(=O)COc1ccc(S(=O)(=O)c2ccc(OCC(=O)OCC)cc2)cc1`, for which the cell number change was -98.2%. Moreover, under setting [2], the AC50 is 29.1 µM [falling, single point]. The AC50 under setting [1] was 29.1 µM [falling, partial curve].
On to `CCc1nnc(NC(=O)CCC(=O)N2CCN(Cc3cc(Cl)ccc3OC)CC2)s1`, for which the cell number change is -7.53%. For the same molecule, the AC50 under setting [1] was 0.461 µM [rising, single point].
For the molecule `NC(=O)c1ccc2c(c1)OCCO2`, the cell number change worked out at 4.01%. Also, the AC50 under setting [1] is 14.6 µM [falling, single point].
On to `O=S(=O)(c1cnc[nH]1)N1CCN(c2ccc(Cl)cc2)CC1`, for which the AC50 is 5.17 µM [falling, single point] under setting [2] and 0.517 µM [falling, full curve] under setting [1].
On to `COc1nc(OC)nc(N2CCC(NC(=O)C(Cc3cccc(OC)c3OC)NC(C)=O)CC2)n1` (centres undefined), for which the cell number change was -4.77%. In addition, the AC50 under setting [1] is 3.66 µM [falling, full curve].
In the case of `NC(=O)C1CCN(C2=C(NS(=O)(=O)c3ccc(Cl)cc3)C(=O)c3ccccc3C2=O)CC1`, the cell number change was -14.7%. The AC50 under setting [1] was 4.11 µM [falling, full curve].
Turning to `CCOCCCNC(=O)c1ccc2c(c1)OCO2`, the cell number change was 10.6%. Besides, the AC50 under setting [1] is 11.6 µM [rising, partial curve].
`CC1=CC(=C(C#N)c2nc3ccccc3s2)C=C(C)N1CC1CCCO1` (centres undefined): the cell number change stood at 63.6%. Moreover, under setting [2], the AC50 was 2.91 µM [rising, full curve]. Moreover, under setting [1], the AC50 is 6.51 µM [rising, single point].
For `CC(C)c1ccc(NC(=O)Cn2ncn3c(cc4ccccc43)c2=O)cc1`, the cell number change was -33.3%. For the same molecule, the concentration at half-maximal activity (AC50) under setting [2] was 0.259 µM [falling, full curve]. The AC50 under setting [1] is 29.1 µM [falling, single point].
For the molecule `C=CCN1C(=NC(=O)COc2ccccc2)SC2CS(=O)(=O)CC21` (centres undefined), the cell number change was 3.24%. For the same molecule, the AC50 under setting [1] was 16.4 µM [rising, single point].
As for `O=C(N/N=C/c1cc(Cl)ccc1O)C(=O)Nc1ccccc1OC(F)(F)C(F)F`, the cell number change is -6.19%. Also, under setting [1], the AC50 was 29.1 µM [falling, single point].
Turning to `CCCOc1ccc(C(=O)N2CCCc3ccccc32)cc1`, the cell number change was -4.45%. Under setting [1], the AC50 was 0.92 µM [rising, full curve].
`CSCCC(NC(=O)c1ccccc1)C(=O)NCCCn1nc(C)cc1C` (centres undefined): the cell number change was -20.1%.
For `COc1ccc(CCNc2cc(C)nc3c(-c4ccccc4)c(C)nn23)cc1OC`, the cell number change was -9.55%. Moreover, the concentration at half-maximal activity (AC50) under setting [1] is 29.1 µM [falling, single point].
Turning to `CCc1ccc(C(=O)NC(C(=O)O)C(C)C)cc1` (centres undefined), the cell number change came to 17.3%.
Consider `Cc1c(Cl)c(-c2n[nH]c(=S)n2Cc2ccco2)nn1C`, for which the AC50 under setting [2] was 1.03 µM [rising, full curve].
In the case of `O=C(COC(=O)c1cc[n+]([O-])cc1)Nc1ccc2c(c1)OCCO2`, the cell number change was -19.7%. The AC50 under setting [1] is 2.59 µM [falling, full curve].
As to `COc1cc2c(cc1OC)C1=NC(=O)CN1C(SCc1ccc(C)cc1)=N2`, the cell number change was -47.8%. Moreover, the AC50 under setting [2] is 29.1 µM [falling, single point].
As to `Cc1noc(/C=C/N(C)C)c1S(=O)(=O)N1CCCC(C(=O)N2CCCCC2)C1` (centres undefined), the cell number change is 0.474%. Moreover, the AC50 under setting [1] is 20.6 µM [falling, partial curve].
`N#CCCn1cc(C(=O)Nc2ccc(C(=O)O)cc2)c(-c2cc3ccccc3o2)n1`: the cell number change was -20.4%. For the same molecule, under setting [1], the AC50 is 0.58 µM [falling, single point].
`COc1cc(OC)cc(C(=O)OC(C)C(=O)NC2CCCc3ccccc32)c1` (centres undefined): the cell number change is -30.7%. The AC50 under setting [2] is 29.1 µM [falling, single point]. Besides, the AC50 under setting [1] was 0.184 µM [rising, full curve, poor fit].
For `CCOC(=O)N1CCC(NC(=O)c2cc(C(=O)Nc3cccc(C(F)(F)F)c3)ccc2CO)CC1`, the cell number change amounted to 22.8%. Moreover, under setting [2], the AC50 was 0.00461 µM [rising, full curve, poor fit]. Also, the AC50 under setting [1] was 0.0092 µM [rising, full curve, poor fit].
With `COC(=O)CC1Oc2ccc(C)cc2NC1=O` (centres undefined), the cell number change is -25.5%. In addition, under setting [1], the AC50 is 20.6 µM [falling, single point].
`Cc1ccc(-c2nc3ccc([N+](=O)[O-])cc3[nH]2)cc1`: the cell number change is -12.3%. The AC50 under setting [1] was 0.164 µM [rising, full curve, poor fit].
In the case of `O=[N+]([O-])c1cc([N+](=O)[O-])c2oc(-c3ccccc3)c(Br)c2c1O`, the cell number change is -12.5%.
In the case of `COc1ccc(/C(N)=C/C(=O)C(C)(C)C)cc1`, the cell number change is -27%.
Turning to `CCOC(=O)Nc1cc(C(=O)OC)cc(C(=O)OC)c1`, the cell number change was 11.2%. Also, the AC50 under setting [1] is 1.84 µM [rising, full curve].
With `O=C1CCCc2nc3c(cc21)C(O)Oc1c-3ccc2ccccc12` (centres undefined), the cell number change was -50.8%. The AC50 under setting [2] was 0.731 µM [falling, full curve]. The AC50 under setting [1] was 3.66 µM [falling, single point].
As for `CCOc1nc(C)cc(C)c1S(=O)(=O)c1cccc(Cl)c1`, the cell number change was -6.34%. For the same molecule, under setting [1], the AC50 is 6.51 µM [falling, single point].
As to `CCOC(=O)C(CC)Sc1nc2c(cnn2-c2ccccc2)c(=O)[nH]1` (centres undefined), the cell number change turned out to be 34.5%. Besides, under setting [2], the AC50 is 1.46 µM [rising, full curve]. Besides, under setting [1], the AC50 was 0.58 µM [rising, full curve].
Take `CN(C)CC(=O)c1c(N)n(Cc2ccccc2)c(=O)n(C)c1=O`: the cell number change is -0.683%.
With `CCCCCCc1cc2cc(/C(N)=N/NC(=O)c3ccncc3)c(=O)oc2cc1O`, the cell number change was -4.75%.
As for `Cc1ccc(OC(=O)Cn2c(C(F)(F)F)nc3ccccc32)cc1`, the cell number change is -16.8%. Besides, under setting [2], the AC50 is 0.00461 µM [falling, full curve, poor fit].
Turning to `CCOc1ccccc1NC(=O)CSc1nnc(C2CC2)n1CC`, the cell number change is 0.833%. For the same molecule, under setting [1], the AC50 was 0.517 µM [rising, single point].
Turning to `CCOc1ccc(C2=C(C=C(C#N)C#N)C(c3ccccc3)c3ccccc3O2)cc1` (centres undefined), the cell number change amounted to 3.31%. Also, under setting [1], the AC50 is 4.11 µM [rising, full curve].
Consider `CCOc1ccc(CC(=O)Nc2ccc(S(=O)(=O)Nc3cc(C)on3)cc2)cc1OCC`, for which the cell number change is -22.4%.
As for `Cc1ccc(C)c(Cn2c3ccccc3c3cnn(CC(=O)NCCCN4CCOCC4)c(=O)c32)c1`, the cell number change is -0.708%. For the same molecule, the AC50 under setting [1] was 6.51 µM [rising, single point].
With `CCOC(=O)c1c(C)[nH]c(C(=O)OC(C)C(=O)Nc2ccccc2OC)c1C` (centres undefined), the cell number change was determined as 46%. Moreover, the AC50 under setting [2] is 29.1 µM [rising, single point]. Also, the AC50 under setting [1] was 0.58 µM [rising, single point].
Consider `CCOc1cc(C(=O)Nc2ccc(S(=O)(=O)NC3=NCCCCC3)cc2)cc(Br)c1OC`, for which the cell number change is -5.05%. Besides, the AC50 under setting [1] was 0.731 µM [rising, full curve].
As to `CCCC(CCC)c1nnc(NC(=O)c2ccco2)s1`, the cell number change is -3.38%. For the same molecule, under setting [1], the AC50 is 23.1 µM [falling, single point].
`O=C(Cc1ccccc1)Nc1ccc2oc(-c3cccnc3)nc2c1`: the AC50 was 0.231 µM [rising, full curve] under setting [2] and 0.206 µM [rising, full curve] under setting [1].
Take `CCCCOc1ccc(C(=O)NCCCC(=O)N2CCCCC2)cc1`: the cell number change was -46.9%. Moreover, the AC50 under setting [2] is 18.4 µM [falling, single point]. Under setting [1], the AC50 was 18.4 µM [falling, partial curve].
`Cc1ccc2nc(NCc3ccco3)c(C=NCc3ccco3)c(=O)n2c1`: the cell number change was -23.2%.
For `C=CCNC(=O)COC(=O)c1ccc(C)c(NC(=O)c2ccco2)c1`, the cell number change worked out at 19.2%. Further, under setting [1], the AC50 was 29.1 µM [rising, partial curve, poor fit].
In the case of `Fc1ccc(-c2nnc(Cc3ccc(Cl)cc3)o2)cc1`, the cell number change is 15.6%. Further, the AC50 under setting [2] is 0.00461 µM [rising, full curve, poor fit]. In addition, the AC50 under setting [1] is 9.2 µM [rising, partial curve].
As to `CCCCNC(=O)NNC(=O)COc1cccc(C)c1C`, the cell number change was -22.5%. The AC50 under setting [2] is 0.00517 µM [falling, full curve, poor fit].
As for `O=C(NC(=S)NNC(=O)[C@H]1C[C@@H]1c1ccccc1)c1cccc(F)c1`, the cell number change was found to be 34%. In addition, the AC50 under setting [2] was 0.731 µM [rising, full curve]. Also, the AC50 under setting [1] was 0.231 µM [rising, full curve].
Regarding `O=C1C2CC=C(Cl)CC2C(=O)N1CCc1ccccc1` (centres undefined), under setting [1], the AC50 is 0.411 µM [falling, single point].
`O=C(NCCN1CCOCC1)C(=O)NCC1OCCN1S(=O)(=O)c1ccccc1` (centres undefined): the cell number change is -3.78%. Under setting [1], the AC50 is 18.4 µM [falling, single point].
For the molecule `NC(=O)c1nsc(C(=O)N(Cc2ccc(F)cc2)C(C(=O)NCC2CCCO2)c2ccc(F)cc2)c1N` (centres undefined), the cell number change was -8.33%.
As to `CC(C)Cn1nc(C(=O)Nc2cccc(C(=O)NC3CC3)c2)c2ccccc2c1=O`, the cell number change stood at 14.9%.
In the case of `CC(NC(=O)C1CCCO1)c1ccccc1` (centres undefined), the cell number change amounted to 14.9%. The AC50 under setting [1] was 2.06 µM [falling, partial curve, poor fit].
For the molecule `O=C(CS(=O)(=O)c1ccc(F)cc1)Nc1nnc(-c2cccs2)o1`, the cell number change was -6.74%. Besides, the AC50 under setting [2] is 1.16 µM [falling, full curve, poor fit]. Also, the AC50 under setting [1] is 6.51 µM [falling, single point].
In the case of `COc1ccc(NC(=O)CC2C(=O)N(c3ccc(OC)cc3)C(=O)N2C(C)C)cc1` (centres undefined), the cell number change worked out at 103%. For the same molecule, the AC50 under setting [2] is 20.6 µM [rising, single point].
As for `Cc1nnc(NC(=O)c2cccc(S(=O)(=O)N3CC(c4ccccc4)CC3=O)c2)s1` (centres undefined), the cell number change was -15.1%. Besides, the AC50 under setting [1] is 29.1 µM [falling, single point].
As to `CN(Cc1nc(-c2cccnc2)no1)S(=O)(=O)c1ccccc1`, the AC50 under setting [1] is 0.411 µM [rising, partial curve, poor fit].
As for `O=c1[nH][nH]c(C(F)(F)F)c1C=NCc1cccs1`, the cell number change is -26.8%.
Turning to `Cc1ccc(S(=O)(=O)NC(=O)Nc2ccc(Cl)cn2)cc1`, the cell number change is -13.6%. Further, under setting [1], the AC50 is 5.17 µM [falling, partial curve, poor fit].
